Results as given in the supplement of paper PMC10849652.
The list shows a part of the results.

Protein sequences, listed by entry. Tags and fused reporters are not part of them. Lines headed by an entry give the natural chain unless they say otherwise; changes in a name come on top.
UniProt Q9H2C0: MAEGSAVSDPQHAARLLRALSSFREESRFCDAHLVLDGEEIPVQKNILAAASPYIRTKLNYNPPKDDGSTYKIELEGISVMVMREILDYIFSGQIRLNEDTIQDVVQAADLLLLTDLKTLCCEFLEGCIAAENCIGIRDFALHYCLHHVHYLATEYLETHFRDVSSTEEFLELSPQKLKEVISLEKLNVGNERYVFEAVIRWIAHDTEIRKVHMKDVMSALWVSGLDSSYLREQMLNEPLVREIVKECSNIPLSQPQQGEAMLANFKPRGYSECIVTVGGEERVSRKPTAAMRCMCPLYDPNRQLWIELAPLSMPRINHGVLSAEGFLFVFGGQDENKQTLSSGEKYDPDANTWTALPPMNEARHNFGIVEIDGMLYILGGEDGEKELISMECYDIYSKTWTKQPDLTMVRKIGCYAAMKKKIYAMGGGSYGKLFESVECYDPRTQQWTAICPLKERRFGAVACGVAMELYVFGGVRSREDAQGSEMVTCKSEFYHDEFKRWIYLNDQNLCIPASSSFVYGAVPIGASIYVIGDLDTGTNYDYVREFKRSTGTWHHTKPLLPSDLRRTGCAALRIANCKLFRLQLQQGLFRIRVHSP
UniProt Q92538, whole entry, looked up: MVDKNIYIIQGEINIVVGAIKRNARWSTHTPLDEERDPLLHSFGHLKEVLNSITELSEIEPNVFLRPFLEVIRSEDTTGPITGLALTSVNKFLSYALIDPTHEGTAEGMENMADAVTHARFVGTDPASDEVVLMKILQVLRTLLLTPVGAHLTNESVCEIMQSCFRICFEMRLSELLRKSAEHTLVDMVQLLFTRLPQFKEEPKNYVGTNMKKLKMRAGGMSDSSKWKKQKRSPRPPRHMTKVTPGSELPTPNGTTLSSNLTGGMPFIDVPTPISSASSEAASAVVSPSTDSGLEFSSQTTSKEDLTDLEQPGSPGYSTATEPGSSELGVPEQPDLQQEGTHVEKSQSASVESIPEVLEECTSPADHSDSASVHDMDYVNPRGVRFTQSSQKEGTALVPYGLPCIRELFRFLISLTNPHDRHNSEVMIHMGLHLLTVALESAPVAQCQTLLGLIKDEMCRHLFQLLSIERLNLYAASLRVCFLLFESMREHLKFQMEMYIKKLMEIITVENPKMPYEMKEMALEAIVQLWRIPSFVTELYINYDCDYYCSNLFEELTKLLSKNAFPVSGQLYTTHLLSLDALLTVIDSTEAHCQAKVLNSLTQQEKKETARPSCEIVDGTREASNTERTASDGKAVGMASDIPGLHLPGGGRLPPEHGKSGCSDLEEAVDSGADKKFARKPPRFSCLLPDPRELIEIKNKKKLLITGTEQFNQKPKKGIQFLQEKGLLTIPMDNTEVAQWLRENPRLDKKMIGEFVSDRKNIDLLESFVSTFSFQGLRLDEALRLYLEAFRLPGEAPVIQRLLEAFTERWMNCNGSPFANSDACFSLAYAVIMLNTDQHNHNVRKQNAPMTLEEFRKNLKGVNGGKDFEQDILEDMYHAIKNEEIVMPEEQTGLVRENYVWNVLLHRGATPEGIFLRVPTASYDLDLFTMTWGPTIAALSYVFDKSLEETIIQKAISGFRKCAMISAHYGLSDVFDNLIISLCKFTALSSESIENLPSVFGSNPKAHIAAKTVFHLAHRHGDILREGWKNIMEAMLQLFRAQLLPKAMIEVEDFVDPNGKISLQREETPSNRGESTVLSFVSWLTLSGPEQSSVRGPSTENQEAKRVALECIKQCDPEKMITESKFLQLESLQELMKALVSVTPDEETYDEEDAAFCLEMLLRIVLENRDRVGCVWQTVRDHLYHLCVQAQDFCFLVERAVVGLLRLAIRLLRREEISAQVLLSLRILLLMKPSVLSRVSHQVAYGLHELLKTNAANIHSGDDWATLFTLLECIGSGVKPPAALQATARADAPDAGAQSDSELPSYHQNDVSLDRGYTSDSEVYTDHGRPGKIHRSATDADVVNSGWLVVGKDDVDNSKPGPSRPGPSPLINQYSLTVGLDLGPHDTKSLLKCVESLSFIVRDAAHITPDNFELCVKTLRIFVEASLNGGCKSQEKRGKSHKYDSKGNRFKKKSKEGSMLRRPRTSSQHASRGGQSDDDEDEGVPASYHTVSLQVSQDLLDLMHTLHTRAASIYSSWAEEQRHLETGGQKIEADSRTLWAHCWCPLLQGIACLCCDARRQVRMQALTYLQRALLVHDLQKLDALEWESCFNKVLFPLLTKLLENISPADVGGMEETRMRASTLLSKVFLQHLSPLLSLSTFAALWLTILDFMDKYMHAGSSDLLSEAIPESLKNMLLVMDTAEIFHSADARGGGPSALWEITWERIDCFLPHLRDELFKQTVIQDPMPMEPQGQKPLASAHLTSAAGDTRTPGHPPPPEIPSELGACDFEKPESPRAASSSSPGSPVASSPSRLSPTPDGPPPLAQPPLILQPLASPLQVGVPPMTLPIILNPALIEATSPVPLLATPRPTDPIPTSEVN
UniProt P60520, whole entry, looked up: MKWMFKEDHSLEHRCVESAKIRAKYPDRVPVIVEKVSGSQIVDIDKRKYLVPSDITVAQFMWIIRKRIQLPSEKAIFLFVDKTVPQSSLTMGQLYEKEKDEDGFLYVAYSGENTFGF
UniProt Q9UJY5: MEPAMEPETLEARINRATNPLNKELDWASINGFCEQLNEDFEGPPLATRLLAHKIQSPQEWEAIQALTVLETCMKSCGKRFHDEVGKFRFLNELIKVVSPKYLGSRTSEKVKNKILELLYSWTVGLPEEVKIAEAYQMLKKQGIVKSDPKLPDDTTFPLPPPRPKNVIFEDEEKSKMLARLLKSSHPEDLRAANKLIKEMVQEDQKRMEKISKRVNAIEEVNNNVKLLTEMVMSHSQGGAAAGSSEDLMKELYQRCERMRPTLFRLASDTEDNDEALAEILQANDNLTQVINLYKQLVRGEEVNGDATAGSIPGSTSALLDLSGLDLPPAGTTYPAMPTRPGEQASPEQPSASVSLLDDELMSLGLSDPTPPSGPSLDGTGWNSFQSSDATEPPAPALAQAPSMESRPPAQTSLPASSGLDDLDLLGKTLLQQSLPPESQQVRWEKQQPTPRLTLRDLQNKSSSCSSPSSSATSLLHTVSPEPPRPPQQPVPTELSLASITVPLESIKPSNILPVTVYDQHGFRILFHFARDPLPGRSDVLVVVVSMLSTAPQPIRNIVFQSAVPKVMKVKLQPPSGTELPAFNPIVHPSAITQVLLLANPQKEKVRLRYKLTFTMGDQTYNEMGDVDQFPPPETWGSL
UniProt P30047: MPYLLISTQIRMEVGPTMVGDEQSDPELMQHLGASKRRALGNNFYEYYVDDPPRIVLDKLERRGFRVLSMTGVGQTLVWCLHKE
UniProt P07902: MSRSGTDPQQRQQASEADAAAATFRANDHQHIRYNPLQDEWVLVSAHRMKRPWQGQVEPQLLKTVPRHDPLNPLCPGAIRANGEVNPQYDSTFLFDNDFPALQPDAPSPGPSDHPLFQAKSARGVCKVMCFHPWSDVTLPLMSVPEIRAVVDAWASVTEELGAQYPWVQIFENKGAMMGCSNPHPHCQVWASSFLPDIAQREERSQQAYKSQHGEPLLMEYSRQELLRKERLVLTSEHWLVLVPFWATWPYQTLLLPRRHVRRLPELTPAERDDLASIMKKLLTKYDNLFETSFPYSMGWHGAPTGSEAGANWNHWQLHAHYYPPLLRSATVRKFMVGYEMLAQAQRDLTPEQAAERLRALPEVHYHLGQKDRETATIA
UniProt Q92947: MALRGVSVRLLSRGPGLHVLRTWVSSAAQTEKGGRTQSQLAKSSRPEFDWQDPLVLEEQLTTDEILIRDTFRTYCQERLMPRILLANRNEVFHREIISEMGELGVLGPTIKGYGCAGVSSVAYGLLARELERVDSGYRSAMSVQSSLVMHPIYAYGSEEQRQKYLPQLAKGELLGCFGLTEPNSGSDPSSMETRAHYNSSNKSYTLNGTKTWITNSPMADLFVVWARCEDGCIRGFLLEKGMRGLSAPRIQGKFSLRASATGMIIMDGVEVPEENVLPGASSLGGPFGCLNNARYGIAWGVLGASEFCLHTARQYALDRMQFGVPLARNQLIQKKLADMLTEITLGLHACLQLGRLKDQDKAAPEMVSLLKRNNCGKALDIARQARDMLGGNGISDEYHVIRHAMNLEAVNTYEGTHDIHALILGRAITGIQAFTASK
UniProt Q9NY12: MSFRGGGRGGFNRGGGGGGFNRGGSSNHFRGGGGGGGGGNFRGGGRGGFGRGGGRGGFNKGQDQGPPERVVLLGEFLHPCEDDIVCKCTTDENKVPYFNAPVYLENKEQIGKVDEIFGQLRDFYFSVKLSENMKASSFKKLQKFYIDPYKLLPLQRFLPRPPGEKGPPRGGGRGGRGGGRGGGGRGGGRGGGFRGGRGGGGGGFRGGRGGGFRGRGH
UniProt Q6ZNW5: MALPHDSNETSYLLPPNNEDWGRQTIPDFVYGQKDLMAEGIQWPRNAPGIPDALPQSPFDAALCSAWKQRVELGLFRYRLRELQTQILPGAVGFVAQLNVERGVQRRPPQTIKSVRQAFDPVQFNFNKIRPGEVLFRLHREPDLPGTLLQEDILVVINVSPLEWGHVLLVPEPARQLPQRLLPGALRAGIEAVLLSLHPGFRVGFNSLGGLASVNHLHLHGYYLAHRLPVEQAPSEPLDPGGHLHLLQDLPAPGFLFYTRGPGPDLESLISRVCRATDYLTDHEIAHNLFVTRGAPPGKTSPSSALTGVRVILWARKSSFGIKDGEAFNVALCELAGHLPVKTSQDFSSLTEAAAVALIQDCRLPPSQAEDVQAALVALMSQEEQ
UniProt P31150: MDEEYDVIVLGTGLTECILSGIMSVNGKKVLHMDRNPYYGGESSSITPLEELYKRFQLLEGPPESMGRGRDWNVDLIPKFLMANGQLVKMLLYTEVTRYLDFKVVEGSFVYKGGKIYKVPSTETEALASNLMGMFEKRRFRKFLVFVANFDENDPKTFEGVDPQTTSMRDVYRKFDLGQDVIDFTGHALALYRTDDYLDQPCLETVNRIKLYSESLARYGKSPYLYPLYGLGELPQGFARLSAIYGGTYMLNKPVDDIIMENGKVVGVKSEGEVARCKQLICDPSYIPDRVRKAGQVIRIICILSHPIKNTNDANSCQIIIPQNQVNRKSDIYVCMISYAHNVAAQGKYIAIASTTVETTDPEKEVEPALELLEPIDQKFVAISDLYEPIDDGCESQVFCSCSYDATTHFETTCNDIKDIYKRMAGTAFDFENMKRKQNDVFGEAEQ
UniProt P35637: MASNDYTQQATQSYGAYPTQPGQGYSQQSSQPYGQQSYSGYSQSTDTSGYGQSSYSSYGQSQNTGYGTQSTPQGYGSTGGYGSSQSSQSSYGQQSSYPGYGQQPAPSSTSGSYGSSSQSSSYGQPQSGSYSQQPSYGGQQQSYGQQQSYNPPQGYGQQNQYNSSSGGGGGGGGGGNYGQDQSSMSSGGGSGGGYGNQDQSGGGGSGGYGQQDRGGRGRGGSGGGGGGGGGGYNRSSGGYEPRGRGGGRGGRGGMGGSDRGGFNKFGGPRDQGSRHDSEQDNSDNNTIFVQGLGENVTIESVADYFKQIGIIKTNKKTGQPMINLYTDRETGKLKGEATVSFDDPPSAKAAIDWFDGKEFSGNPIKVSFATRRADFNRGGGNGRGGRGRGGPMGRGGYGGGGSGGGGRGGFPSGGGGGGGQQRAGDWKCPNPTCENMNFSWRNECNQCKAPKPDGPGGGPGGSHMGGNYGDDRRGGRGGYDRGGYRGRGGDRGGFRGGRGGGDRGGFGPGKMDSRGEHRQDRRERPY
UniProt P02792: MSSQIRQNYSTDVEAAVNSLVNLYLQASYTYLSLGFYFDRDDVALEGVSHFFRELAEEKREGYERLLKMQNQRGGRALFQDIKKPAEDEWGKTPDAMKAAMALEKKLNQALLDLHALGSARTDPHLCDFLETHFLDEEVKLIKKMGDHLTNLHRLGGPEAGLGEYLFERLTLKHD
UniProt P48506: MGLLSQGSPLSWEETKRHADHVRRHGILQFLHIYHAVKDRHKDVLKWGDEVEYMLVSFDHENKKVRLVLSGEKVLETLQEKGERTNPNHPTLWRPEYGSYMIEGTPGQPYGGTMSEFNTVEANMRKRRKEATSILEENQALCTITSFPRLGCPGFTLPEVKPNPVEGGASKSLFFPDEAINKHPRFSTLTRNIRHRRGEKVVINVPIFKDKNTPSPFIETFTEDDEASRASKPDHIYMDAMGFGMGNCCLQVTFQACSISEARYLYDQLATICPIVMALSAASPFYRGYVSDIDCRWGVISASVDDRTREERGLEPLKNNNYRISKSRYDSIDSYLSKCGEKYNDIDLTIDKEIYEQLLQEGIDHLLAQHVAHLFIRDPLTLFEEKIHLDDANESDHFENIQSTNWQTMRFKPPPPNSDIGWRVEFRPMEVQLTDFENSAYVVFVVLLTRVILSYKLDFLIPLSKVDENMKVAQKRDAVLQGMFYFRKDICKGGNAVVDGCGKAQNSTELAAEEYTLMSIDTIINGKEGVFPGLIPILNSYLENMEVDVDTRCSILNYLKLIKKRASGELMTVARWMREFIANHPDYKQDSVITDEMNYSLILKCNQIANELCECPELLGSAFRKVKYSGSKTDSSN

Key:
Assay in all cases: log2 fold change, soluble protein after heating vs DMSO (PISA); higher = thermal stabilisation; K562 lysate, 10 uM; active = over 0.2 and 3.5 SD of the protein, either way, in both replicates (recomputed)
nilotinib = compound: Cc1cn(-c2cc(NC(=O)c3ccc(C)c(Nc4nccc(-c5cccnc5)n4)c3)cc(C(F)(F)F)c2)cn1 [nilotinib]
Summary of the method: (§1)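 The values are log-two fold changes in thermal stability compared with solvent controls and come from duplicates. They were obtained by TMTpro 16plex LC-MS/MS, with channel sums equalised, on the supernatant after 21,000xg for 90 min. That supernatant came from crude K562 extract at 1 mg/mL protein treated with 10 μM compound for 30 min, heated for 3 min across 48°C-58°C, pooled and brought to 0.5% NP-40 at 4°C.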

[1] = compound: Cc1nc(Nc2n[nH]c3c2CN(C(=O)N[C@H](CN(C)C)c2ccccc2)C3(C)C)c2sccc2n1
Summary of the method: as §1

dasatinib = compound: Cc1nc(Nc2ncc(C(=O)Nc3c(C)cccc3Cl)s2)cc(N2CCN(CCO)CC2)n1 [dasatinib]
Summary of the method: as §1

[2] = compound: Cc1ncc(-c2ccnc(Nc3ccc(S(C)(=O)=O)cc3)n2)n1C(C)C
Summary of the method: as §1

[3] = compound: Cn1cc(-c2ccc3c(c2)CCN3C(=O)Cc2cccc(C(F)(F)F)c2)c2c(N)ncnc21
Summary of the method: as §1

quisinostat = compound: Cn1cc(CNCC2CCN(c3ncc(C(=O)NO)cn3)CC2)c2ccccc21 [quisinostat]
Summary of the method: as §1

tipifarnib = compound: Cn1cncc1[C@@](N)(c1ccc(Cl)cc1)c1ccc2c(c1)c(-c1cccc(Cl)c1)cc(=O)n2C [tipifarnib]
Summary of the method: as §1

[4] = compound: NC(=O)Nc1cc(-c2cccc(F)c2)sc1C(=O)N[C@H]1CCCNC1
Summary of the method: as §1

[5] = compound: NC(=O)c1cnc(N[C@@H]2CCCC[C@@H]2N)nc1Nc1cccc(-n2nccn2)c1
Summary of the method: as §1

[6] = compound: NC1(c2ccc(-c3nc4ccn5c(=O)[nH]nc5c4cc3-c3ccccc3)cc2)CCC1
Summary of the method: as §1

[7] = compound: NCC(=O)Nc1ccc(-n2nc(C(F)(F)F)cc2-c2ccc3c(ccc4ccccc43)c2)cc1
Summary of the method: as §1

vorinostat = compound: O=C(CCCCCCC(=O)Nc1ccccc1)NO [vorinostat]
Summary of the method: as §1

silmitasertib = compound: O=C(O)c1ccc2c(c1)nc(Nc1cccc(Cl)c1)c1ccncc12 [silmitasertib]
Summary of the method: as §1

[8] = compound: O=C1NC(=O)C(c2cnc3ccccn23)=C1c1cn2c3c(cc(F)cc13)CN(C(=O)N1CCCCC1)CC2
Summary of the method: as §1

entospletinib = compound: c1cn2cc(-c3ccc4cn[nH]c4c3)nc(Nc3ccc(N4CCOCC4)cc3)c2n1 [entospletinib]
Summary of the method: as §1

Measured: log2 fold change

GAN (UniProt Q9H2C0)
inactive: nilotinib -0.006 | [1] -0.02 | dasatinib -0.013 | [2] -0.023 | [3] -0.021 | quisinostat -0.06 | tipifarnib -0.029 | [4] 0 | [5] 0.007 | [6] -0.039 | [7] 0.014 | vorinostat -0.035 | silmitasertib 0 | [8] -0.041 | entospletinib 0.002

GBF1 (UniProt Q92538)
active: vorinostat -0.304
inactive: nilotinib -0.021 | [1] 0.02 | dasatinib -0.088 | [2] 0.027 | [3] 0.021 | quisinostat -0.04 | tipifarnib -0.003 | [4] 0.054 | [5] 0.018 | [6] -0.034 | [7] -0.019 | silmitasertib 0.023 | [8] 0.043 | entospletinib 0.008

GABARAPL2 (UniProt P60520)
inactive: nilotinib -0.046 | [1] 0.005 | dasatinib 0.03 | [2] 0.028 | [3] 0.007 | quisinostat 0.03 | tipifarnib 0.045 | [4] -0.033 | [5] -0.007 | [6] 0.024 | [7] 0.083 | vorinostat 0.128 | silmitasertib 0.014 | [8] -0.013 | entospletinib 0.024

Fetched one by one from the entries so far (two):
GAN (UniProt Q9H2C0)
inactive: nilotinib -0.006 | [1] -0.02 | dasatinib -0.013 | [2] -0.023 | [3] -0.021 | quisinostat -0.06 | tipifarnib -0.029 | [4] 0 | [5] 0.007 | [6] -0.039 | [7] 0.014 | vorinostat -0.035 | silmitasertib 0 | [8] -0.041 | entospletinib 0.002

GBF1 (UniProt Q92538)
active: vorinostat -0.304
inactive: nilotinib -0.021 | [1] 0.02 | dasatinib -0.088 | [2] 0.027 | [3] 0.021 | quisinostat -0.04 | tipifarnib -0.003 | [4] 0.054 | [5] 0.018 | [6] -0.034 | [7] -0.019 | silmitasertib 0.023 | [8] 0.043 | entospletinib 0.008

Next part

GGA1 isoform 6 (UniProt Q9UJY5)
inactive: nilotinib -0.001 | [1] -0.024 | dasatinib -0.018 | [2] 0.015 | [3] 0.013 | quisinostat -0.071 | tipifarnib 0.023 | [4] 0.005 | [5] 0.026 | [6] -0.023 | [7] 0.029 | vorinostat 0.026 | silmitasertib 0.01 | [8] -0.006 | entospletinib 0.001

GCHFR (UniProt P30047)
inactive: nilotinib -0.052 | [1] 0.007 | dasatinib -0.018 | [2] 0.076 | [3] 0.035 | quisinostat -0.171 | tipifarnib 0.008 | [4] -0.007 | [5] 0.07 | [6] -0.035 | [7] -0.051 | vorinostat 0.04 | silmitasertib 0.019 | [8] -0.031 | entospletinib -0.068

GALT (UniProt P07902)
inactive: nilotinib -0.012 | [1] 0.01 | dasatinib 0.106 | [2] 0.037 | [3] -0.038 | quisinostat -0.029 | tipifarnib 0.036 | [4] 0.054 | [5] 0.027 | [6] -0.096 | [7] -0.058 | vorinostat 0.116 | silmitasertib -0.136 | [8] 0.034 | entospletinib 0

GCDH (UniProt Q92947)
active: vorinostat 0.34
inactive: nilotinib -0.018 | [1] -0.129 | dasatinib 0.024 | [2] -0.033 | [3] -0.022 | quisinostat -0.05 | tipifarnib -0.018 | [4] -0.07 | [5] -0.021 | [6] -0.044 | [7] 0.004 | silmitasertib 0.161 | [8] 0.187 | entospletinib 0.046

GAR1 (UniProt Q9NY12)
inactive: nilotinib 0.018 | [1] -0.008 | dasatinib 0.015 | [2] 0.008 | [3] -0.009 | quisinostat -0.003 | tipifarnib 0.014 | [4] -0.01 | [5] 0.024 | [6] 0.004 | [7] -0.009 | vorinostat 0.111 | silmitasertib 0.008 | [8] 0.027 | entospletinib 0.012

GDPGP1 (UniProt Q6ZNW5)
inactive: nilotinib 0.018 | [1] 0.024 | dasatinib -0.041 | [2] 0.018 | [3] 0.05 | quisinostat 0.116 | tipifarnib -0.015 | [4] 0.008 | [5] 0.028 | [6] 0.002 | [7] 0.068 | vorinostat 0.045 | silmitasertib -0.047 | [8] 0.042 | entospletinib 0.03

GDI1 (UniProt P31150)
inactive: nilotinib -0.015 | [1] -0.015 | dasatinib 0.007 | [2] -0.042 | [3] 0.026 | quisinostat 0.017 | tipifarnib -0.002 | [4] -0.013 | [5] -0.011 | [6] 0.014 | [7] -0.022 | vorinostat 0.107 | silmitasertib 0.001 | [8] -0.009 | entospletinib -0.002

GAB2 (UniProt Q9UQC2)
inactive: nilotinib -0.03 | [1] 0.028 | dasatinib 0.005 | [2] -0.006 | [3] 0.066 | quisinostat -0.087 | tipifarnib -0.001 | [4] 0.016 | [5] 0.012 | [6] -0.004 | [7] -0.004 | vorinostat -0.206 | silmitasertib -0.035 | [8] -0.036 | entospletinib -0.013

GADD45GIP1 (UniProt Q8TAE8)
inactive: nilotinib -0.001 | [1] 0.008 | dasatinib -0.039 | [2] -0.009 | [3] 0.097 | quisinostat 0.033 | tipifarnib 0.001 | [4] 0.017 | [5] 0.056 | [6] 0.005 | [7] 0.017 | vorinostat 0.103 | silmitasertib 0.051 | [8] -0.01 | entospletinib 0.094

G6PD isoform 2 (UniProt P11413)
inactive: nilotinib 0.013 | [1] -0.008 | dasatinib 0.01 | [2] -0.012 | [3] -0.01 | quisinostat -0.021 | tipifarnib 0.016 | [4] 0.012 | [5] -0.035 | [6] 0.008 | [7] 0.008 | silmitasertib -0.008 | [8] -0.003 | entospletinib 0.032
active: vorinostat -0.46

GABPA (UniProt Q06546)
inactive: nilotinib 0.031 | [1] -0.021 | dasatinib -0.032 | [2] 0.005 | [3] 0.002 | quisinostat -0.025 | tipifarnib 0.011 | [4] -0.007 | [5] 0.005 | [6] 0.043 | [7] 0.009 | vorinostat -0.173 | silmitasertib 0.006 | [8] -0.008 | entospletinib -0.001

FUS (UniProt P35637)
inactive: nilotinib -0.23 | [1] 0.039 | dasatinib 0.083 | [2] 0.019 | [3] -0.023 | quisinostat 0.009 | tipifarnib 0.025 | [4] -0.016 | [5] -0.006 | [6] 0.038 | [7] -0.014 | vorinostat 0.115 | silmitasertib 0.005 | [8] -0.036 | entospletinib 0.011

FTL (UniProt P02792)
inactive: nilotinib -0.039 | [1] 0.035 | dasatinib -0.03 | [2] -0.038 | [3] -0.012 | quisinostat 0.043 | tipifarnib 0.017 | [4] 0.091 | [5] 0.009 | [6] 0.06 | [7] -0.064 | vorinostat 0.018 | silmitasertib 0.057 | [8] 0.011 | entospletinib -0.151

GABPB1 (UniProt Q06547)
active: vorinostat -0.299
inactive: nilotinib -0.008 | [1] 0.012 | dasatinib -0.051 | [2] -0.023 | [3] 0.05 | quisinostat -0.036 | tipifarnib 0.007 | [4] 0.031 | [5] 0.05 | [6] 0.033 | [7] 0 | silmitasertib 0.008 | [8] -0.052 | entospletinib -0.004

GCLC (UniProt P48506)
inactive: nilotinib -0.006 | [1] 0.009 | dasatinib 0.038 | [2] 0.029 | [3] -0.02 | quisinostat -0.007 | tipifarnib 0.07 | [4] 0 | [5] 0.024 | [6] 0.012 | [7] -0.022 | vorinostat -0.025 | silmitasertib 0.008 | [8] -0.034 | entospletinib -0.022

GALNT11 (UniProt Q8NCW6)
inactive: nilotinib -0.019 | [1] 0.023 | dasatinib 0.012 | [2] 0.021 | [3] -0.021 | quisinostat -0.041 | tipifarnib 0.045 | [4] 0.04 | [5] -0.009 | [6] -0.028 | [7] -0.072 | vorinostat 0.108 | silmitasertib 0.05 | [8] -0.022 | entospletinib -0.024
